This experiment can be described thus: qHTS Assay to Find Inhibitors of Chronic Active B-Cell Receptor Signaling. As to conditions: ABC-DLBCL IkBa-CBG/CBR reporter, luminescence ratio (green luciferase fused to IkBa over red control in TMD8 lymphoma cells), 4 h. The gist of the method:
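Doxycycline induced both beetle luciferases in TMD8 lymphoma cells; IKK-driven degradation limits the IkappaBalpha-fused green signal, while red luminescence normalises for cell number and nonspecific effects. Compounds tested up to 46 uM, 4 hrs.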
(qHTS replaces the single test concentration by a dilution series.)

Where [1] appears, read: measured here: CBR red luminescence, cell number.
Where [2] appears, read: measured here: IkBa-CBG green luminescence.

This note sets out measurements from PubChem BioAssay AID493014 (National Center for Advancing Translational Sciences (NCATS), 2011).

“And” between values parts separate entries of the source, which are not always exact repeats. Identical values can stand only once. Some of the results follow. Further columns of the screen follow, without active or inactive calls. Most of these compounds were active or inconclusive in the main read-out, so they are no random draw. Words in brackets tell the shape of the fitted curve; partial curves, single points and poor fits give uncertain potencies.

As a reminder, the AC50 is the midpoint of the concentration-response curve, whichever way the signal moves.

In the case of `CCOC(=O)c1[nH]c2ccccc2c1NC(=O)c1ccc2c(c1)OCO2`, under setting [1], the AC50 is 11.2 µM [rising, partial curve, poor fit].

Turning to `O=[N+]([O-])c1cc(/C=N/O)ccc1Oc1cccc(Cl)c1`, the AC50 under setting [1] is 0.282 µM [rising, full curve, poor fit]. For the molecule `Cc1ccc(S(=O)(=O)Cc2ccc(C(=O)N3CCN(c4cccc(C)c4C)CC3)o2)cc1`, the half-maximal activity concentration (AC50) runs as follows: under setting [1], 35.5 µM [falling, single point]; under setting [2], 10 µM [falling, partial curve] and 11.2 µM [falling, partial curve].

Take `CCOC(=O)c1c(NC(=O)CSc2c[nH]c3ccccc23)sc2c1CCC2`: the AC50 under setting [2] was 29.1 µM [rising, partial curve, poor fit]. On to `CC(=O)c1cccc(NC(=O)/C=C/c2ccc([N+](=O)[O-])s2)c1`, for which the AC50 under setting [1] was 0.398 µM [falling, full curve, poor fit].

`CCOc1ccc2oc(-c3ccccc3)c(C(=O)O)c2c1`: under setting [1], the AC50 was 18.4 µM [falling, single point]. Take `Cc1cc(C(=O)CSc2nc(N)cc(=O)[nH]2)c(C)n1-c1ccc(OC(F)F)cc1`: under setting [1], the AC50 is 0.355 µM [falling, partial curve, poor fit]. On to `Nc1c(C(=O)Nc2nc3ccccc3s2)sc2nc(-c3cccs3)ccc12`, for which the AC50 under setting [1] was 3.55 µM [falling, full curve, poor fit].

For the molecule `CCCCCn1c(N)c(-c2nc3ccccc3s2)c2c([N+](=O)[O-])nn(CC)c(=O)c21`, the AC50 under setting [1] is 3.66 µM [falling, full curve].

`Cc1c(NC(=S)NC(=O)c2sc3ccccc3c2Cl)cccc1C(=O)O`: the AC50 under setting [1] is 0.355 µM [falling, full curve].

`CC(=O)Nc1nc2ccccc2n1Cc1ccccc1C`: under setting [1], the AC50 is 11.6 µM [rising, partial curve, poor fit]. As to `Cc1nc2cc(C(F)(F)F)ccc2n1CCNc1nc(-c2ccc([N+](=O)[O-])c(Cl)c2)cs1`, the AC50 under setting [1] was 35.5 µM [falling, single point] and the AC50 under setting [2] is 35.5 µM [rising, partial curve, poor fit]. Take `COc1ccc(OCCNc2cc(Cl)ccc2[N+](=O)[O-])cc1`: the AC50 under setting [1] is 18.4 µM [rising, partial curve, poor fit]. On to `CCCCC[C@H](O)/C=C/[C@H]1C=CC(=O)[C@@H]1C/C=C\CCCC(=O)O`, for which the AC50 runs as follows: under setting [1], 0.651 µM [rising, full curve, poor fit]; under setting [2], 1.84 µM [falling, full curve]. In the case of `CCOc1ncccc1C(=O)OCC(=O)NCCc1ccc(S(N)(=O)=O)cc1`, under setting [1], the AC50 was 18.4 µM [rising, single point]. Take `Cc1ccc2[nH]c(-c3cccc(N)c3)cc2c1`: under setting [1], the AC50 is 1.58 µM [rising, full curve, poor fit]. Still for that read-out and setting: the value for `Cc1nc2sc(C(c3ccco3)N3CCC(Cc4ccccc4)CC3)c(O)n2n1` (stereo unspecified) was 20.6 µM [rising, single point].

`Cc1ccc(S(=O)(=O)N2CCN(C(=O)CCCOc3cccc(C)c3)CC2)cc1`: under setting [1], the AC50 was 13 µM [rising, partial curve]. As for `Cc1cc(C(=O)Nc2ccncc2)c2ccccc2n1`, the AC50 under setting [1] was 15.8 µM [falling, single point]. As for `CCOC(=O)c1[nH]c2ccc(F)cc2c1NC(=O)CN1CCc2cc(OC)c(OC)cc2C1`, the AC50 under setting [1] is 12.6 µM [falling, single point]. Regarding `CC(=O)N1CCc2c(sc3c2c(=O)n(-c2ccccc2)c(=O)n3CC(=O)Nc2ccccc2)C1`, the AC50 under setting [1] is 0.794 µM [rising, partial curve, poor fit]. For `Cc1ccccc1NC(=O)CSc1nc2ccccc2o1`, the AC50 under setting [1] is 0.411 µM [falling, full curve, poor fit].

`Cc1ccccc1S(=O)(=O)c1c(C)cc(C)n(C(C)C)c1=O`: under setting [1], the AC50 is 11.2 µM [rising, single point]. Consider `CCCOc1ccc(NC(=O)C2CC(=O)N(C)C(=Nc3cccc(OC)c3)S2)cc1` (stereo unspecified), for which, under setting [1], the half-maximal activity concentration (AC50) was 2.82 µM [rising, partial curve, poor fit].

`CCCC(=O)Nc1ccc2c(c1)nc(CCN1CCN(c3ccccn3)CC1)n2C`: the half-maximal activity concentration (AC50) under setting [1] was 0.112 µM [rising, full curve, poor fit]. The same measure, in the same setting: with `COc1ccc2c(c1)CC/C(=C/c1ccccn1)C2=O` the figure was 12.6 µM [falling, partial curve]; with `COc1ccc2c(c1)SC(C)CC2=O` (stereo unspecified), 5.8 µM [rising, partial curve, poor fit]; with `CCOC(=O)Cc1csc(/C(=N/O)C(N)=O)n1`, 4.61 µM [rising, single point]. As for `CC(C)C(NS(=O)(=O)c1cccc2nsnc12)C(=O)N1CCn2c1nc1ccccc12` (stereo unspecified), the concentration at half-maximal activity (AC50) under setting [1] is 0.103 µM [falling, full curve, poor fit].

Regarding `COC(=O)C1CCN(C(=O)COC(=O)Cc2c[nH]c3ccccc23)CC1`, under setting [1], the AC50 was 35.5 µM [falling, single point]. `C/C(=N\NC(=O)c1ccc(O)cc1O)c1cccnc1`: the AC50 under setting [1] was 5.01 µM [falling, partial curve]. For the molecule `O=C(Nc1ccc(S(=O)(=O)NC2CCCCC2)cc1)c1ccc(Br)o1`, under setting [1], the AC50 was 29.1 µM [falling, single point]. With `Cc1cccc(NC(=O)c2ccc3c(c2)OCCO3)c1`, under setting [1], the AC50 was 7.94 µM [falling, partial curve]. As to `O=C(NC1CCCCC1)/C(=N\O)c1ccccn1`, under setting [1], the AC50 was 0.562 µM [rising, full curve, poor fit].

As to `O=C(CSc1nnc(Cn2nnc3ccccc32)o1)N(Cc1ccc(F)cc1)c1ccccc1`, under setting [1], the AC50 is 35.5 µM [falling, single point].

For the molecule `CC1CCN(c2nc(-c3ccccc3)c(C#N)c(=O)[nH]2)CC1`, the AC50 under setting [1] was 0.058 µM [rising, full curve, poor fit]. `O=C(Cc1ccccc1)N/N=C/C=C/c1cccc([N+](=O)[O-])c1`: the AC50 under setting [1] was 20 µM [rising, partial curve, poor fit].

`Cc1csc(NC(=O)NCC2CCCC(CNC(=O)Nc3nc(C)cs3)C2)n1` (stereo unspecified): under setting [1], the AC50 is 5.62 µM [falling, full curve]. Turning to `CCNc1nc(NCC)nc(-n2nc(C)cc2C)n1`, the AC50 under setting [2] was 12.6 µM [falling, partial curve, poor fit]. `COc1ccc(NC(=O)c2ccc(OC)cc2)cc1`: under setting [1], the AC50 is 6.31 µM [rising, single point]. Regarding `CCOC(=O)C1(Cc2ccc(OC)cc2)CCN(C(=O)c2cc3ccccc3[nH]2)CC1`, the AC50 under setting [1] is 0.282 µM [rising, full curve, poor fit]. As to `CN(C)c1ccc(/C=N/NC(=O)c2ccc(Cn3cc(Br)cn3)o2)cc1`, the AC50 under setting [1] was 4.61 µM [falling, partial curve, poor fit]. For the molecule `CCOC(=O)/C=C/[C@H]1CC2(CCO1)SCCCS2`, the AC50 under setting [1] is 29.1 µM [rising, single point]. Consider `O=C(N/N=C/c1cccnc1)C1CC1(c1ccccc1)c1ccccc1` (stereo unspecified), for which the AC50 under setting [1] is 8.91 µM [falling, partial curve]. As for `O=C(NCc1ccc(F)cc1)c1ccc(CS(=O)(=O)c2ccc(Br)cc2)o1`, the AC50 under setting [1] was 35.5 µM [falling, single point]. For the molecule `CC(C)CC(=O)Nc1cccc(-c2csc(-c3ccccc3)n2)c1`, under setting [1], the AC50 is 29.1 µM [falling, single point]. Turning to `Cc1ccc(NC(=O)C2CC2c2ccccc2)c([N+](=O)[O-])c1` (stereo unspecified), the AC50 under setting [1] was 1.41 µM [rising, full curve, poor fit]. As to `Clc1ccc(-c2csc(N3CCOCC3)n2)cc1`, the half-maximal activity concentration (AC50) under setting [1] was 15.8 µM [rising, partial curve, poor fit].

As to `Cc1c(NC(=O)CSc2nncc3ccccc23)c(=O)n(-c2ccccc2)n1C`, under setting [1], the AC50 was 11.6 µM [falling, partial curve]. In the case of `COc1ccc2[nH]c(O)c(NC(C)=O)c2c1`, the AC50 under setting [1] is 6.51 µM [falling, single point]. Turning to `CCN1CCN(Cc2ccc(NC(=O)c3ccc(C)c(NC(=O)c4cccc(-c5cn[nH]c(=O)c5)c4)c3)cc2C(F)(F)F)CC1`, the AC50 under setting [1] is 11.2 µM [falling, partial curve, poor fit]. On the same count and under the same terms, the value for `CCn1c(NCc2ccco2)nc2c1c(=O)n(C)c(=O)n2C` was 0.517 µM [falling, full curve, poor fit]; that for `CC(=O)Nc1cc(Cl)ccc1OS(=O)(=O)c1ccc(C)cc1` was 0.082 µM [rising, full curve, poor fit]. As for `CC(=O)Nc1ccc(N=C(C2=C(O)c3ccccc3C2=O)c2ccccc2)cc1`, under setting [1], the AC50 is 22.4 µM [falling, single point].

In the case of `Cc1cc2nc(/C=C/c3cccnc3)[nH]c2cc1C`, the AC50 is, setting by setting: under setting [1], 1.58 µM [rising, partial curve, poor fit]; under setting [2], 6.31 µM [falling, partial curve]. For `O=S(=O)(NCc1ccccc1)c1ccc(S(=O)(=O)N(Cc2ccccn2)C2CCCC2)cc1`, the AC50 is, setting by setting: under setting [1], 0.231 µM [falling, full curve, poor fit]; under setting [2], 23.1 µM [rising, single point].

In the case of `CC(=O)c1cccc(NC(=O)/C(=C\c2cccnc2)NC(=O)c2ccc(C)cc2)c1`, the half-maximal activity concentration (AC50) under setting [1] was 0.1 µM [rising, full curve, poor fit]. As to `O=C1OC(C(=O)Nc2ccccc2)Cc2ccccc21` (stereo unspecified), the AC50 under setting [1] is 14.1 µM [falling, single point]. Regarding `CN(CC(=O)Nc1ccccc1Cl)C(=O)c1ccccc1SCC(=O)N1CCCC1`, under setting [1], the AC50 is 29.1 µM [rising, single point]. The same measure, in the same setting: the value for `CC(C)(C)NC(=O)CC1C[C@H](C(=O)N2CCCCC2)[C@@]2(C)c3[nH]c4ccccc4c3CCN2C1=O` (stereo partly specified) was 1.46 µM [rising, partial curve, poor fit]. Take `COc1ccccc1NCC(=O)NN=C1CCS(=O)(=O)c2ccc(F)cc21`: under setting [1], the AC50 was 29.1 µM [falling, single point].
